The target of assay [1] is MYC-tagged MK2 (UniProt P49137). Kind of assay: co-immunoprecipitation from 293T cells, IP anti-V5, blot anti-Myc (FIG. 10A).
Assay [2] shares this target. Kind of assay: co-immunoprecipitation from 293T cells, unstimulated or stimulated with anisomycin, IP anti-V5, blot anti-MYC.

Sequences of proteins named here, by UniProt entry; tags and fusion partners are left off.
UniProt P49137: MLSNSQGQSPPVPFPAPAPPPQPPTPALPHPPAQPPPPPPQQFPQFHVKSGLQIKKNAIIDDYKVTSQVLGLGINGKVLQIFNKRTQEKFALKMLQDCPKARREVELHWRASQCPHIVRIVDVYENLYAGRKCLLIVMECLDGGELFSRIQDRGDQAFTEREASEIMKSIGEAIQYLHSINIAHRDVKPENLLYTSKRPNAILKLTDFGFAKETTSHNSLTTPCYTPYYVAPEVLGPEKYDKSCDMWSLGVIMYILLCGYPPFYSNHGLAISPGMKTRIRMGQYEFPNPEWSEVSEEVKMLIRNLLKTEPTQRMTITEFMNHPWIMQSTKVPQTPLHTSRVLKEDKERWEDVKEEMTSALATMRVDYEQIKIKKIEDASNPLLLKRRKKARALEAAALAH

Results are given in words; binding and its absence hold for the method and conditions named. In cells and extracts the contact can be indirect. Some binding calls cover weakened binding; strength is not graded here. Tags and fused reporters may be left off the sequences shown.

B1: V5-tagged Shc (V5-p66 Shc A) (protein, not shown: small tags and cut ends)
chain: MDLLPPKPKYNPLRNESLSSLEEGASGSTPPEELPSPSASSLGPILPPLPGDDSPLPCVPSFPRMSNLKLANPAGGPWGLKGSQERLLKMGKGVQGQPFGLRPLAPPPDMNKLSGGGGRRTRVEGGQLGGEEWTRHGSFVNKPTRGWLHPNDKVMGPGVSYLVRYMGCVEVLQSMRALDFNTRTQVTREAISLVCEAVPGAKGATRRRKPCSRPLSSILGRSNLKFAGMPITLTVSTSSLNLMAADCKQIIANHHMQSISFASGGDPDTAEYVAYVAKDPVNQRACHILECPEGLAQDVISTIGQAFELRFKQYLRNPPKLVTPHDRMAGFDGSAWDEEEEEPPDHQYYNDFPGKEPPLGGVVDMRLREGAARPTLPSAQMSSHLGATLPIGQHAAGDHEVRKQMLPPPPCPGRELFDDPSYVNIQNLDKARQAGGGAGPPNPSLNGSAPRDLFDMKPFEDALRVPPPPQSMSMAEQLQGEPWFHGKLSRREAEALLQLNGDFLVRESTTTPGQYVLTGLQSGQPKHLLLVDPEGVVRTKDHRFESVSHLISYHMDNHLPIISAGSELCLQQPVDRKV
Consider B1, for which the binding result with MYC-tagged MK2 [1] and with MYC-tagged MK2 [2] was “binds” each time.

The record behind these values is patent US20060094101A1.
